Measured values: publication PMC11251182, “Tubular insulin-induced gene 1 deficiency promotes NAD^+ consumption and exacerbates kidney fibrosis” (EMBO Molecular Medicine, 2024)
No constants are given. Whether binding was seen depends on the method and setting. In cells and extracts the contact can be indirect. Some results given as binding are weak or reduced against the parent protein; the word gives no strength.

Protein sequences, listed by entry. Tags and fused reporters are not part of them. Residues count along the entry.
UniProt Q9EQY0, residues 21-977: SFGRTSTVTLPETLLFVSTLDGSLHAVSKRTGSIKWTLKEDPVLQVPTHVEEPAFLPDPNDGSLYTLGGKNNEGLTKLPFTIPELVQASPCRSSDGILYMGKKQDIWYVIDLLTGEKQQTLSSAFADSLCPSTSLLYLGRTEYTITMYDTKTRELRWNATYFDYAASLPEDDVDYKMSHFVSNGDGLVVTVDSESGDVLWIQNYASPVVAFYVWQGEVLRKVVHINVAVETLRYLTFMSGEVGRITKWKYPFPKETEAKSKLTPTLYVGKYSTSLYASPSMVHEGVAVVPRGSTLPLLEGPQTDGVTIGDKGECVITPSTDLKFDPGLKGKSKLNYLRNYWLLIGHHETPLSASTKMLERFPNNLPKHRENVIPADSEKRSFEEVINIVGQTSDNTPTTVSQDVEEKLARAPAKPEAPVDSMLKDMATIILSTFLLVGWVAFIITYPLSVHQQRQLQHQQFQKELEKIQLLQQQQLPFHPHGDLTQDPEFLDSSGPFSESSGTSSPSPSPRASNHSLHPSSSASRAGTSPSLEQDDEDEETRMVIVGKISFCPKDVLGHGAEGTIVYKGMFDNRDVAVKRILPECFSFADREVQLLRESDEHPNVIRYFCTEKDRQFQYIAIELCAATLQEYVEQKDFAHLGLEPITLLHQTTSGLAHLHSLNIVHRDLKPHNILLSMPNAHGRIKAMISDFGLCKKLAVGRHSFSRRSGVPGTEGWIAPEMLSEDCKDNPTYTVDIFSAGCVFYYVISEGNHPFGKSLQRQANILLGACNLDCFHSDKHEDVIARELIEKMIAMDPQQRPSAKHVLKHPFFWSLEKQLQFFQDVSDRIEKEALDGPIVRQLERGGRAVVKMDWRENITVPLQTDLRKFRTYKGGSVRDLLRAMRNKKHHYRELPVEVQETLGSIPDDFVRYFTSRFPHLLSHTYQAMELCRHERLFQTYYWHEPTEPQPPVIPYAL
UniProt P20029, residues 20-655: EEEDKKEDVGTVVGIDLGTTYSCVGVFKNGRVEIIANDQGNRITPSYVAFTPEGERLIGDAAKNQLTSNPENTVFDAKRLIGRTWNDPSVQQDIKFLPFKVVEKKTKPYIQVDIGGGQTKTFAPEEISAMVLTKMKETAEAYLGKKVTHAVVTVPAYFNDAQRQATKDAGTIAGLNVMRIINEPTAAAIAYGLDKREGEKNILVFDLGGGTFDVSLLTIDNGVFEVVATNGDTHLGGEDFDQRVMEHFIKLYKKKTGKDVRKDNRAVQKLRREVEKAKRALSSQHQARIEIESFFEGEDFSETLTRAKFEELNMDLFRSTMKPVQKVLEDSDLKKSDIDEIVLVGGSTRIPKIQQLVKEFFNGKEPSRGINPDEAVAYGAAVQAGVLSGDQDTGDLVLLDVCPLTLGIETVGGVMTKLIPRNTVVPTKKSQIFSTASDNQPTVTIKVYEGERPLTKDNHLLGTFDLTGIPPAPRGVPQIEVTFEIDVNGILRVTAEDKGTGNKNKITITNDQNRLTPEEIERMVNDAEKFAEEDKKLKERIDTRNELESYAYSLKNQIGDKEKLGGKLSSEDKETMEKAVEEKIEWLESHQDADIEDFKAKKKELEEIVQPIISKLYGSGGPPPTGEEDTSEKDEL

Target: kinase/endoribonuclease inositol-requiring enzyme 1α (IRE1α) (mouse (endogenous in TKPTS)) (UniProt Q9EQY0)
Assay: co-IP; TKPTS cells; Insig1-silenced, Aldh1a1-silenced or NAD+-treated (Fig. 8H-J), and nicardipine-treated cells stimulated by TGF-β1 (Fig. 9N); which protein was precipitated is not told

ER stress sensor GRP78/BIP (from UniProt P20029 20-655)
binding: binds
